Some of the results follow. These are further read-outs of the screen, such as a control signal, another cell line or another target. No call is given for them. Compounds called inactive in the main read-out are mostly missing here. The note in brackets gives the kind of curve behind each potency; many fits are weak.
Test: qHTS Assay for Lipid Storage Modulators in Drosophila S3 Cells;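 on cell number change: cells counted by Cell Tracker Red CMTPX staining in the red channel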
Conditions: BODIPY lipid droplet fluorescence, 18-24 h; for cell number change: measured here: cell count max response, cells fed with added oleic acid
Outline: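 Drosophila S3 cells loaded with oleic acid (400 uM, as added) and compounds at several concentrations; lipid droplets imaged by 488-nm laser-scanning cytometry, 500–530 nm intensity and object ratio to cell channel. Percent activity normalized to 20 uM Triacsin C.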

[1] = measured here: lipid fluorescence (Fed channel) AC50, cells fed with added oleic acid
[2] = measured here: cell number channel AC50, cells fed with added oleic acid

SMILES | cell number change [%] | AC50 [1] | AC50 [2]
Cc1ccc(C(=O)CSc2ccc(-c3cccnc3)nn2)cc1 | 28.5 | 20.6 µM [rising, single point] | 
Nc1nc(Br)c2ccccc2c1-c1ccc(F)cc1 | 14.7 |  | 
O=C(O)c1nccnc1C(=O)NCc1csc2ccc(Cl)cc12 | -15.9 | 6.51 µM [rising, single point] | 
Cc1cccc(C(=O)OC2CCOC2=O)c1C (centres undefined) | -7.94 | 4.11 µM [rising, full curve] | 
Cc1cc(CNC(=O)Cn2nc(C)c([N+](=O)[O-])c2C)c2ccccc2n1 | -30.8 | 4.11 µM [rising, single point] | 1.64 µM [falling, partial curve]
CC(C)(C)OC(=O)NCc1ccc(CNC(=O)c2nc[nH]c2C(=O)NCc2ccccc2)cc1 | -45.2 | 0.461 µM [falling, full curve, poor fit] | 0.731 µM [falling, partial curve]
CC(=O)C1=C(O)C(=O)N(Cc2cccnc2)C1c1ccccc1Cl (centres undefined) | 0.673 | 0.116 µM [falling, full curve, poor fit] | 0.164 µM [rising, full curve, poor fit]
O=C1CC(N(CCc2ccccc2)C(=S)Nc2ccccc2)C(=O)N1c1ccc(Br)cc1 (centres undefined) | -27.6 | 13 µM [falling, partial curve] | 
CCn1c(O)c(/C=C2\C=Nc3ccccc32)sc1=Nc1ccc(C)cc1 | -37.5 | 14.6 µM [falling, single point] | 16.4 µM [falling, single point]
CC(C)CCNC(=O)CN(CC1CCCO1)C(=O)CCC(=O)Nc1ccccn1 (centres undefined) | -15.6 | 0.116 µM [rising, full curve, poor fit] | 
CCOC(=O)C(=N/O)/C(C)=N/NC(=O)C(=O)Nc1ccc(Cl)cc1 | -19.3 | 20.6 µM [falling, single point] | 
Cc1ccc(NCc2ccc(C)s2)cc1 | -17.5 | 0.164 µM [rising, full curve, poor fit] | 
Cc1csc2ncc(C(=O)NC(C)c3ccccc3)c(=O)n12 (centres undefined) | 62.5 | 1.46 µM [rising, partial curve] | 1.64 µM [rising, partial curve]
COc1ccc(NC(=O)CCCN(C)S(=O)(=O)c2ccc(C)cc2)cc1 | -4.66 |  | 0.13 µM [falling, full curve, poor fit]
COc1ccc(NC(=O)COC(=O)CCOc2ccccc2C)cc1Cl | -15.2 |  | 
CN(C)CCNC(=O)/C(=C/c1ccc(-c2cccc(Cl)c2)o1)NC(=O)c1ccccc1 | 7.11 |  | 
COc1ccc(-n2c(SCC(=O)Nc3nccs3)nnc2-c2ccccc2)cc1 | 36.6 | 2.91 µM [rising, partial curve] | 0.326 µM [rising, partial curve, poor fit]
CCOC(=O)c1c(C)[nH]c(C(=O)OC/C(O)=C(\C#N)c2nc3ccccc3[nH]2)c1C | -60.4 |  | 20.6 µM [falling, partial curve]
CC/C(=N\NC(=O)Nc1nonc1N)c1ccc(OC)c(OC)c1 | -5.66 | 6.51 µM [rising, single point] | 

3 of the compounds above, as tab-separated lines.
SMILES	cell number change [%]	AC50 [1]	AC50 [2]
CCn1c(O)c(/C=C2\C=Nc3ccccc32)sc1=Nc1ccc(C)cc1	-37.5	14.6 µM [falling, single point]	16.4 µM [falling, single point]
CC(C)CCNC(=O)CN(CC1CCCO1)C(=O)CCC(=O)Nc1ccccn1 (centres undefined)	-15.6	0.116 µM [rising, full curve, poor fit]	
CCOC(=O)C(=N/O)/C(C)=N/NC(=O)C(=O)Nc1ccc(Cl)cc1	-19.3	20.6 µM [falling, single point]	

Remaining list, next part:

SMILES | cell number change [%] | AC50 [1] | AC50 [2]
CCN(CC)CCCNC(=O)c1cc2c(-c3ccc(Cl)cc3)nn(C)c2s1 |  | 6.51 µM [rising, partial curve] | 2.06 µM [rising, partial curve]
Cc1ccc(S(=O)(=O)c2cc3c(=O)n4ccccc4nc3n(Cc3ccco3)c2=N)cc1 | -15.2 | 0.259 µM [rising, full curve] | 
COc1ccccc1C1CC(c2ccccc2)Nc2ncnn21 (centres undefined) | -20.6 |  | 
Cc1cccc2c(C(=O)O)cc(-c3cccnc3)nc12 | -34.7 | 0.58 µM [falling, full curve] | 0.58 µM [falling, full curve]
O=C(COc1ccccc1Br)NCCc1nc2ccccc2[nH]1 | 8.46 |  | 0.231 µM [falling, full curve, poor fit]
Cc1ccc(NC(=O)CC(=O)Nc2ccc(C)cc2)cc1 | -8.96 |  | 
Cc1cccc(C)c1NC(=O)CNC(=O)c1c(C)nn(-c2ccccc2)c1C | 2.93 | 29.1 µM [rising, single point] | 
CCCCc1ccc(S(=O)(=O)NNC(=S)NCc2ccco2)cc1 | -26.8 | 0.259 µM [falling, full curve] | 0.461 µM [falling, full curve, poor fit]
CCn1nc(C)c(C2C(C#N)=C(N)Oc3n[nH]c(C)c32)c1C (centres undefined) | -6.13 | 0.731 µM [falling, full curve, poor fit] | 
CNC(=O)N(O)C1N(/N=C/c2ccccc2OC)C(=S)SC1(C)C (centres undefined) | 1.11 |  | 
COCC(=O)Nc1nc2ccc(C)cc2s1 | 201 | 23.1 µM [rising, partial curve] | 16.4 µM [rising, partial curve]
COc1ccccc1C1NC=C([N+](=O)[O-])C=C1[N+](=O)[O-] (centres undefined) | -46.4 | 20.6 µM [falling, single point] | 18.4 µM [falling, single point]
C/C(=N\Nc1ccc(Cl)c(C(=O)O)c1)c1ccc2c(c1)OCO2 | 11.7 | 20.6 µM [rising, single point] | 
O=C(CSc1nnnn1-c1ccccc1)Nc1ncc(Cc2cc(Cl)ccc2Cl)s1 | -26.4 | 16.4 µM [falling, single point] | 
CCCCCc1c(C)nc(N2CCc3ccccc32)[nH]c1=O | -18.9 | 3.26 µM [falling, single point] | 3.66 µM [falling, single point]
O=C(NCc1ccccc1)C(c1ccco1)N(C(=O)c1csnn1)C1CC1 (centres undefined) | -31 |  | 0.146 µM [falling, full curve, poor fit]
O=C(NCCS(=O)(=O)NCCc1ccccc1)c1ccccc1 | 44.2 |  | 29.1 µM [rising, single point]
CC(C)Cn1nc(C(=O)OCC(=O)NCC(F)(F)F)c2ccccc2c1=O | -0.113 |  | 0.092 µM [rising, partial curve, poor fit]

Source: PubChem BioAssay AID2685 (National Center for Advancing Translational Sciences (NCATS), 2010)
